Laboratory results published in patent US9416128B2, “Fused heterocyclic compounds as ion channel modulators” (Gilead Sciences, Inc., priority 2013, dated 2016).
At least one read-out could not be matched to a standard name with certainty.

Protein sequences, listed by entry. Tags and fused reporters are not part of them.
UniProt Q14524, whole entry: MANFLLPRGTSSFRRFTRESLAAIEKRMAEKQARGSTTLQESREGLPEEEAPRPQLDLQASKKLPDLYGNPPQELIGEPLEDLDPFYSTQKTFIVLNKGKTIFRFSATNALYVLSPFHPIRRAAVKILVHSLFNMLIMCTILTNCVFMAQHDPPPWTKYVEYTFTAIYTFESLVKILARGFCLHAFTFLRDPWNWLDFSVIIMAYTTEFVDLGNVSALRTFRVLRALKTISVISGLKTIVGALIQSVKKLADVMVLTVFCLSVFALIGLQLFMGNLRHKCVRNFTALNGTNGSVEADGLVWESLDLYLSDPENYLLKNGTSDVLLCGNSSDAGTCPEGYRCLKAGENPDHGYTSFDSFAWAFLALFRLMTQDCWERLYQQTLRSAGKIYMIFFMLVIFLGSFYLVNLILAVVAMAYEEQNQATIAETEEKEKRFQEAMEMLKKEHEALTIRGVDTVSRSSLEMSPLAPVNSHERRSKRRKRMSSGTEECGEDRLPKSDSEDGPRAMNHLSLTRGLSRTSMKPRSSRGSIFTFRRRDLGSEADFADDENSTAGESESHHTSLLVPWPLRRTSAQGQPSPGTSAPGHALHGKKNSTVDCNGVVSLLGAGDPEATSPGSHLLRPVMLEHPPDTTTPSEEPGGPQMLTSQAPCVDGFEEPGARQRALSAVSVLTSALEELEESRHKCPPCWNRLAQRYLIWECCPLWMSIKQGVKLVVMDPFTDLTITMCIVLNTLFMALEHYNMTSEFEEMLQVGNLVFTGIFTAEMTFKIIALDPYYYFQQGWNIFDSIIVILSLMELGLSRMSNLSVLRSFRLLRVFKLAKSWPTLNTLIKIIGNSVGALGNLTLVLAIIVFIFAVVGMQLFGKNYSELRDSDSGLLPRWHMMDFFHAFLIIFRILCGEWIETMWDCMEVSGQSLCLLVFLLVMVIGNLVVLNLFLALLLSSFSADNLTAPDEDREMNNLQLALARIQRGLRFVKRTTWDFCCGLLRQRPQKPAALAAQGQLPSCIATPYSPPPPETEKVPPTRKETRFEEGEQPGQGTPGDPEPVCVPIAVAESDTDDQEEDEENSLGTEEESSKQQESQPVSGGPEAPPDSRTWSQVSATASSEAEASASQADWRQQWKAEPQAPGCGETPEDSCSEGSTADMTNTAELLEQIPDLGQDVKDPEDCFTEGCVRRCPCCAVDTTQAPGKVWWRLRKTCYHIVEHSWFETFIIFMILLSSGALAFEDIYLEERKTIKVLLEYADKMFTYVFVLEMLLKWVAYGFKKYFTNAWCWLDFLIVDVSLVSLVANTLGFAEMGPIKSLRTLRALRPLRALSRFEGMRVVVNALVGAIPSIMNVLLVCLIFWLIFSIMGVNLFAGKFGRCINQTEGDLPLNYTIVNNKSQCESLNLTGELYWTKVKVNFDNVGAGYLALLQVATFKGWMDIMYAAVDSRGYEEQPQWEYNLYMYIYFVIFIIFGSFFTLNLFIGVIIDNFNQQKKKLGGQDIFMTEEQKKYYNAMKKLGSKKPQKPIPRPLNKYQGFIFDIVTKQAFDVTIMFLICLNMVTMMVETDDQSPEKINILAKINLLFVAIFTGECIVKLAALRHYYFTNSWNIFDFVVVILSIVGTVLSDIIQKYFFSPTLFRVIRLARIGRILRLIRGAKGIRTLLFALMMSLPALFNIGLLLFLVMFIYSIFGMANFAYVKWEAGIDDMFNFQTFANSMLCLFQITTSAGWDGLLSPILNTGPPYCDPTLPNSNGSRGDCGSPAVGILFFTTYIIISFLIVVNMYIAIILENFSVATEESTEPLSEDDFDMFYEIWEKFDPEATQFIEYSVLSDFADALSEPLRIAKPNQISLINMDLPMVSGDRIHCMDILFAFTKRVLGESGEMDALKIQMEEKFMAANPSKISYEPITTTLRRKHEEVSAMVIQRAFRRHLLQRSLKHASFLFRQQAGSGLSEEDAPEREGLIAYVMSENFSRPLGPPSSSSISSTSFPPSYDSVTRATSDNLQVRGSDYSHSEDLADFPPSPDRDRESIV

Target: wild-type human cardiac sodium channel, hNaV 1.5 (Peak INa) (Homo sapiens, UniProt Q14524)
Experiment: Peak INa screening assay (tonic block and use-dependent block)
Type: cell-based
Details: % inhibition, tonic block of peak INa at 3 uM; 0.1 Hz; holding -100 mV
Method: The assay uses an HEK293 (human embryonic kidney) cell line heterologously expressing the wild-type human cardiac sodium channel, hNaV 1.5, purchased from Millipore (Billerica, Mass.). No beta subunits were coexpressed with the Na channel alpha subunit. Cells are maintained with standard tissue culture procedures and stable channel expression is maintained with 400 μg/mL Geneticin in the culture medium. […] Currents are digitized at 25 kHz and low-pass filtered at 5 kHz and stored in the Sophion Bioscience Oracle database (Sophion Bioscience, Copenhagen, Denmark). Analysis is performed using QPatch Assay software and data are compiled in Excel 2010 (Microsoft, Seattle, Wash., U.S.A.). Compound stocks are routinely made by the Gilead Sample Bank in vials to 10 mM in dimethyl sulfoxide (DMSO). In some cases, when compounds are not soluble in DMSO, they are made in 100% ethanol. Stocks are sonicated as necessary. […] After establishing the whole cell recording configuration, channels were stimulated to open with low frequency (0.1 Hz) for so that the recording can be monitored and the extent to which the recording has stabilized can be assessed. […] Voltage protocols for TB and UDB are were performed in the absence and presence of compound and TB and UDB are calculated with respect to the compound free condition. Both TB and UDB were analyzed by incorporating rundown correction for the peak INa.

COc1cc(OC(F)(F)F)ccc1-c1ccc2c(c1)CN(Cc1ncccn1)C(=O)O2 [Example 1, 6-(2-methoxy-4-(trifluoromethoxy)phenyl)-3-(pyrimidin-2-ylmethyl)-3,4-dihydro-2H-benzo[e][1,3]oxazin-2-one]
Nav1.5 Peak TB 3 uM: 18.9%
